According to paper doi:10.1101/2024.08.29.610327:
Results are given in words; binding and its absence hold for the method and conditions named. Binding seen in cells or lysates may run through a third protein. Binding can be weak; no strength is given. Tags and fused reporters may be left off the sequences shown.

Protein sequences, listed by entry. Tags and fused reporters are not part of them. Lines headed by an entry give the natural chain unless they say otherwise; changes in a name come on top.
UniProt F4KF65: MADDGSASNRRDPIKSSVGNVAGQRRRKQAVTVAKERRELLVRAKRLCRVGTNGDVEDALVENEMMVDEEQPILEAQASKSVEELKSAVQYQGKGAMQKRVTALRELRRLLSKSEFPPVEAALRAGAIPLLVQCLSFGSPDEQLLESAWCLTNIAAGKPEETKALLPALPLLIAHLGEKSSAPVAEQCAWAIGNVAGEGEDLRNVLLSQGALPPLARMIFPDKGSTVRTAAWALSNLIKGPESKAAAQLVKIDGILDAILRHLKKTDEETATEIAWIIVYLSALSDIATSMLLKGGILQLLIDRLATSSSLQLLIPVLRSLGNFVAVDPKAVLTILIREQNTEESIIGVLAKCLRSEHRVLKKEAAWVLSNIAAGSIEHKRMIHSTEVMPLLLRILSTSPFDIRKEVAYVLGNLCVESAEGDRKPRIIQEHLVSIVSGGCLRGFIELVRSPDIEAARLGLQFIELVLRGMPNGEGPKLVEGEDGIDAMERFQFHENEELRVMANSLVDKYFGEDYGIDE

B1: TPL-cLuc (35S:TPL-cLuc) in Arabidopsis (protein, UniProt Q94AI7 1-1131)
chain: MSSLSRELVFLILQFLDEEKFKETVHKLEQESGFFFNMKYFEDEVHNGNWDEVEKYLSGFTKVDDNRYSMKIFFEIRKQKYLEALDKHDRPKAVDILVKDLKVFSTFNEELFKEITQLLTLENFRENEQLSKYGDTKSARAIMLVELKKLIEANPLFRDKLQFPTLRNSRLRTLINQSLNWQHQLCKNPRPNPDIKTLFVDHSCGPPNGARAPSPVNNPLLGGIPKAGGFPPLGAHGPFQPTASPVPTPLAGWMSSPSSVPHPAVSAGAIALGGPSIPAALKHPRTPPTNASLDYPSADSEHVSKRTRPMGISDEVNLGVNMLPMSFSGQAHGHSPAFKAPDDLPKTVARTLSQGSSPMSMDFHPIKQTLLLVGTNVGDIGLWEVGSRERLVQKTFKVWDLSKCSMPLQAALVKEPVVSVNRVIWSPDGSLFGVAYSRHIVQLYSYHGGEDMRQHLEIDAHVGGVNDISFSTPNKQLCVITCGDDKTIKVWDAATGVKRHTFEGHEAPVYSVCPHYKENIQFIFSTALDGKIKAWLYDNMGSRVDYDAPGRWCTTMAYSADGTRLFSCGTSKDGESFIVEWNESEGAVKRTYQGFHKRSLGVVQFDTTKNRYLAAGDDFSIKFWDMDAVQLLTAIDGDGGLQASPRIRFNKEGSLLAVSGNENVIKIMANSDGLRLLHTFENISSESSKPAINSIAAAAAAAATSAGHADRSANVVSIQGMNGDSRNMVDVKPVITEESNDKSKIWKLTEVSEPSQCRSLRLPENLRVAKISRLIFTNSGNAILALASNAIHLLWKWQRNERNATGKATASLPPQQWQPASGILMTNDVAETNPEEAVPCFALSKNDSYVMSASGGKISLFNMMTFKTMATFMPPPPAATFLAFHPQDNNIIAIGMDDSTIQIYNVRVDEVKSKLKGHSKRITGLAFSNVLNVLVSSGADAQLCVWNTDGWEKQRSKVLPLPQGRPNSAPSDTRVQFHQDQAHFLVVHETQLAIYETTKLECMKQWAVRESLAPITHATFSCDSQLVYASFMDATVCVFSSANLRLRCRVNPSAYLPASLSNSNVHPLVIAAHPQEPNMFAVGLSDGGVHIFEPLESEGKWGVAPPAENGSASGAPTAPSVGASASDQPQR
B2: TPL-cLuc (35S:TPL-cLuc) in Nicotiana benthamiana (protein, UniProt Q94AI7 1-1131)
chain: B1 chain

Columns and labels:
[1] = target: IMPα-9-GFP (pIMP-α9:IMPα-9-GFP) (Arabidopsis thaliana) (UniProt F4KF65); test: co-IP
[2] = target: nLuc-IMPα-9 (35S:nLuc-IMPα-9) (Arabidopsis thaliana) (UniProt F4KF65); test: split reporter

Binder	binding [1]	binding [2]
B1	binds	
B2		binds
